This is an account of results in publication PMC9198812.

The exact form of at least one protein or probe is not confirmed. For some assays here: At least one verdict rests on a figure or table, not on a statement of the authors.

The target in data set [1] is gp4-R84A (bacteriophage T7) (UniProt P03692). Kind of data set: double-filter binding. The settings on record: 1 mM [beta,gamma-CH2] dTTP, 10 mM MgCl2, Filter binding: 40 mM Tris-HCl pH 7.5, 50 mM potassium glutamate, 10 mM MgCl2, 5 mM DTT, 30 min, 25 C, recombinant protein, residues 1-566, protein details: His (implied: pET28, TALON), label: 5'-32P, single-stranded DNA.

Data set [2] shares this target. Nature of the data set: mass photometry. Conditions: 1 mM [beta,gamma-CH2] dTTP, 10 mM MgCl2, 150 mM KCl, profile resembles WT (text prints R86A); mass photometry: 40 mM Tris-HCl pH 7.5, 150 mM KCl, 10 mM MgCl2, 25 C, 8.7 nM gp4 hexamer, 10 nM ssDNA; recombinant protein; residues 1-566; protein details: His (implied: pET28, TALON); single-stranded DNA.

For “ATGACCATGATTTCGACGTTTTTTTTTTTGGGGATCCTCTAACCTGCGCA [50-nt ssDNA, 5'-32P]”, in data set [1], the Kd worked out at 128 nM.

Consider “ATGACCATGATTTCGACGTTTTTTTTTTTGGGGATCCTCTAACCTGCGCA [50-nt ssDNA, mass photometry]”, for which the binding result in data set [2] was “binds”.
